From article PMC6945596
Results are given in words; binding and its absence hold for the method and conditions named. Binding seen in cells or lysates may run through a third protein. These calls come from enrichment with a bait or labelling near it, and not all partners need be listed.

Chains of the proteins cited; added tags and fusions are not shown.
UniProt Q80SW1: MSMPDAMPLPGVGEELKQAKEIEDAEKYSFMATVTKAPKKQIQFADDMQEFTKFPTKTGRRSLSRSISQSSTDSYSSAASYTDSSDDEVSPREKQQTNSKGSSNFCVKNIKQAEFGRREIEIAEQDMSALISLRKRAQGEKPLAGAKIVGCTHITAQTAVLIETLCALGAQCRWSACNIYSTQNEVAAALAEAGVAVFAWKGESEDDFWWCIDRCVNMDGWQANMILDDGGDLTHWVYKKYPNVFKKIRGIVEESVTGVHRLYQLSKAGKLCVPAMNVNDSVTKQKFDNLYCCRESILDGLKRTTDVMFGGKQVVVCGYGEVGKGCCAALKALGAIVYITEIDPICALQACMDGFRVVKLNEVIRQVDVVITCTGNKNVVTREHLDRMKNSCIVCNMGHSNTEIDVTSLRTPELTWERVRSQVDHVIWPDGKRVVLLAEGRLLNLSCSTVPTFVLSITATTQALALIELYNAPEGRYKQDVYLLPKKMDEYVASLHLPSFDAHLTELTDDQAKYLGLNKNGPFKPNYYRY

Target: T1, sodium-dependent chloride/bicarbonate exchanger Ncbe (mouse (endogenous in choroid plexus)) (UniProt Q5DTL9)
T1 sequence: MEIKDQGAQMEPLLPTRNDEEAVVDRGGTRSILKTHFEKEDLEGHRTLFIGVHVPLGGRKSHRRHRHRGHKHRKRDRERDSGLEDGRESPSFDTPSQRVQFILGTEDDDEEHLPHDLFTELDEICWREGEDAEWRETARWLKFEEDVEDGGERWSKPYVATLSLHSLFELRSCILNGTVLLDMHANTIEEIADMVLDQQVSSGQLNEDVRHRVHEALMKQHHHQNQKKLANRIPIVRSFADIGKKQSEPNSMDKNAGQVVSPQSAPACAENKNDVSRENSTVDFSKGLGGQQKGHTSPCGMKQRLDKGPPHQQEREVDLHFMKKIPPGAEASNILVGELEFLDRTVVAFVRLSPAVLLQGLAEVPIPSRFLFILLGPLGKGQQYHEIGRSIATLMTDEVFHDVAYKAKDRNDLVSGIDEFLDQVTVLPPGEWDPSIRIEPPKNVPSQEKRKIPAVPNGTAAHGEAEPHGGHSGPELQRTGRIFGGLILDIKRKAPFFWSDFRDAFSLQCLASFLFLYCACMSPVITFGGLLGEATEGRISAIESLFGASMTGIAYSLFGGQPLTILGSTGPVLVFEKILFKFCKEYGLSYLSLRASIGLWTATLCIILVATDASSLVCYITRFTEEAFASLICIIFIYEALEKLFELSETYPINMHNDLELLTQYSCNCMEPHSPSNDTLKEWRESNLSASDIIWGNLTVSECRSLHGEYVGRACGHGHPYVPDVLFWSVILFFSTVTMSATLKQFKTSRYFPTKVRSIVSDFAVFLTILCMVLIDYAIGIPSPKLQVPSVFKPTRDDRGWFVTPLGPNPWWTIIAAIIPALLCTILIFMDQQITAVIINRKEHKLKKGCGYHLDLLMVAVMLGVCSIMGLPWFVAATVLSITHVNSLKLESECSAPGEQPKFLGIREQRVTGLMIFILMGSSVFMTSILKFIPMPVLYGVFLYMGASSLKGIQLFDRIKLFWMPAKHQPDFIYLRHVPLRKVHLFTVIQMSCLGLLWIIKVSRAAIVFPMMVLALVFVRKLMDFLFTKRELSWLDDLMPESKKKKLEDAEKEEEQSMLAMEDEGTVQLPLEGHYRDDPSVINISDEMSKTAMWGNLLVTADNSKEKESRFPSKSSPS
Assay: affinity purification with mass spectrometry; mouse choroid plexus lysate (50 mM Tris-HCl pH 7.4, 150 mM NaCl, 0.25% Na-deoxycholate, 1% Triton X-100, 1 mM EDTA), ~150 ug lysate with 1 ug anti-Ncbe antibody, 4 °C 1 h, protein-A-agarose, washed three times, eluate processed for mass spectrometry

binding: binds
Substance: IP3R Binding protein released with Inositol 1,4,5-Trisphosphate (IRBIT) (from UniProt Q80SW1 1-530)
